The results in this text go back to paper PMC6739330.

By UniProt entry, the sequences of proteins in these tests, tags left out. Where a name states a change or a piece, a line headed by the entry shows the natural chain unless it says otherwise. Chains listed by the source or under a name are the forms on record and can include a tag or linker.
CD56 (NCAM, neural cell adhesion molecule) tagged with CFP or YFP, on CD8+ T cells (P13591-1, form named): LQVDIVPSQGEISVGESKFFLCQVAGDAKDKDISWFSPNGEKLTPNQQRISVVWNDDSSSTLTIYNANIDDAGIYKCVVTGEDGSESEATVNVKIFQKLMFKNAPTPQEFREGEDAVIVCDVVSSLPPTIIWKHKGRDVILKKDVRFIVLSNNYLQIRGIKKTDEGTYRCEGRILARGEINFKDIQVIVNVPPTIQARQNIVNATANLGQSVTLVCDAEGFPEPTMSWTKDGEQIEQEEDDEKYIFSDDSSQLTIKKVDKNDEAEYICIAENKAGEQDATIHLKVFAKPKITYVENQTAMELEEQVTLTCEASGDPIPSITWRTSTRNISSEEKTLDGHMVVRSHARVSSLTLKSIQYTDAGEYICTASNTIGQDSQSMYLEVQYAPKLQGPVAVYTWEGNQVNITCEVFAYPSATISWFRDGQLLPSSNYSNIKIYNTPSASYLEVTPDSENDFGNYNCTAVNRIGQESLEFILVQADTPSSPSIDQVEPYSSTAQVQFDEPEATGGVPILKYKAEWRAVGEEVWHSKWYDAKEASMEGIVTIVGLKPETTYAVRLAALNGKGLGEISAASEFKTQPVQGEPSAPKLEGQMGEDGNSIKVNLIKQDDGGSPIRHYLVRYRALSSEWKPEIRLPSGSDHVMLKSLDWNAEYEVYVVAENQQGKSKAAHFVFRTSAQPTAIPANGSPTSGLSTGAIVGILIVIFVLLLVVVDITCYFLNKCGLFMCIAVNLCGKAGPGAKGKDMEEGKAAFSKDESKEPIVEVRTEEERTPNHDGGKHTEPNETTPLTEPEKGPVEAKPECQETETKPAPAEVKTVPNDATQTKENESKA

These are yes or no findings as the source states them, for the method shown. Binding seen in cells or lysates may run through a third protein. Some binding calls cover weakened binding; strength is not graded here.

Assay [1] concerns the target CD56 (NCAM, neural cell adhesion molecule) tagged with CFP or YFP, on CD8+ T cells (UniProt P13591). In words: FRET or BRET; as a1, with P3DE + P3G peptides at various concentrations; the pair that is blocked. On the technique in general: BRET reads energy transfer from a luciferase to a nearby fluorophore.
Assay [2] shares this target. In words: FRET or BRET; intercellular: CFP-CD56-expressing CD8+ T cells mixed 1:1 (10^6 cells each) with YFP-CD56-expressing CD8+ T cells, phenol red-free medium, 96-well black plates, 4 h; emission ratio 500~550 nm/495~505 nm.

For “CD56 (NCAM, neural cell adhesion molecule) tagged with CFP or YFP, on CD8+ T cells (from UniProt P13591-1 20-848) (receptor)”, the binding entry in assay [1] and in assay [2] was “binds” in each case.
